Experimental data published in patent publication US20160046678A1 (ZYNGENIA, published 2016).
These are yes or no findings as the source states them, for the method shown. Some results given as binding are weak or reduced against the parent protein; the word gives no strength.

Biological target: ErbB2 (UniProt P04626)
Experiment: MRD identification, Example 48

binding, binds:
WSGWCEYEFKWSFCSGHI [EGB549], WSGYCEGEQQWFYCSGQV [EGB526], WSGWCETQKGWHSCHGSI [EGB584], WSGWCEGELQWSFCWGHI [EGB535], WSGWCLTREGWGHCKGLI [EGB569], WSGWCLRVSGWDHCSGHP [EGB556], WSGWCFYGTHWGHCGGLP [EGB553], WSGWCQTGANWHYCNGTI [EGB588], WSGWCFNHGAWGHCRGLI [EGB567], WSGWCENKVGWSFCSGHI [EGB527], WSGWCFYGHGWGHCHGTP [EGB532], WSGWCCFGTSWGYCHGPP [EGB530], WSGWCLSYSGWGHCSGSP [EGB544], WSGWCETYKGWHACHGKI [EGB586], PDSSCHTLYWQLHHCARRE [EGB561], WSGWCEYESHWSFCSGHI [EGB572], WSGYCLTDGTWHHCKGTI [EGB591], WSGWCEHEMYWSYCSGHK [EGB550], WSGWCFYEVRWGHCHGSI [EGB542], WSGWCFFDTHWGHCSGLL [EGB566], WSGWCEGESQWFFCSGLI [EGB571], WSGWCLFSAGWGHCSGLI [EGB534], WSGWCETGVGWHECHGTI [EGB581], WSGWCEGELRWFFCSGTL [EGB551], TDSWCHTLYWALQHCVAQE [EGB557], WSGWCEGEREWYFCSGFF [EGB538], WSGWCESTDSWHFCRGNI [EGB579], WSGWCLMGDSWGHCSGLI [EGB558], WSGWCEGRDAWYQCKGTI [EGB590], WSGWCLSDAGWGACGGAS [EGB521], WSGWCEGDLQWYYCSGHI [EGB562], WSGWCETNAGWIQCYGSI [EGB587], WSGWCLLDAGWGHCKGML [EGB531], WSGWCLADGMWGHCNGTI [EGB589], WSGWCEEALRWSYCSGHI [EGB563], WSGWCLKGDGWGHCWGLI [EGB555], WSGYCLSESGWGHCGGLL [EGB543], WSGWCEGKLKWNYCSGYL [EGB539], WSGWCLSGVGWFHCKGMI [EGB570], WSGWCEYELQWSFCFGPS [EGB560], WSGWCEQDQKWNYCSGYI [EGB540], WSGWCEGEVGWFFCSGYL [EGB559], WSGWCFKITGWGHCSGLI [EGB546], WSGWCEGERKWSYCSGQI [EGB573], WSGWCETPSGWKACRGNI [EGB580], PDSWCHTLYWDLLYCVNQE [EGB575], WSGWCFDGGRWGYCSGPL [EGB554], WSGWCEGELHWYSCSGHM [EGB574], WSGWCFDYTRWGHCSGMP [EGB533], WSGWCLTGTDWHFCRGFI [EGB585], WSGWCETPCGWESCHGTI [EGB577], WSGWCLEWNGWGHCSGIP [EGB522], WSGWCEEEHQWSFCSGYI [EGB537], WSGWCFYGDYWGHCSGQP [EGB545], WSGWCEGERTWHFCSGPL [EGB528], WSGWCEGEHHWYFCRGNF [EGB524], WSGWCLGDAGWGHCGGLP [EGB565], WSGWCENELQWSFCSGHI [EGB547], WSGWCFVGASWGHCYGMI [EGB520], WSGWCYEHTGWRHCHGLI [EGB568], WSGWCENSEGWDFCNGTI [EGB583], WSGWCEGERQWSFCSGSI [EGB548], WSGWCEAERQWTFCSGHI [EGB582], WSGWCEGELQWFFCSGTI [EGB523]
